Results published in patent US6355617B1 (Syngenta Limited, priority 1996, dated 2002).

Assays:
[1] = general procedure: Fmoc solid-phase peptide synthesis; Fmoc Rink Amide MBHA Resin (Novabiochem); DIPCDI/HOBT; HBTU/HOBT/DIPEA; settings: whole synthesis, RP-HPLC, scale of the general procedure 0.25 mmoles
[2] = general procedure: Fmoc solid-phase peptide synthesis; Fmoc Rink Amide MBHA Resin; DIPCDI/HOBT; HBTU/HOBT/DIPEA; settings: whole synthesis, scale 0.25 mmol

Phv-Ala-Lys-IIb-Val-Ala-Ala-Ala-Pip-NH2
final HPLC purity [1]: 100%
isolated mass [2]: 15 mg

Phv-Arg-Ala-IIb-Thr-Ala-Ala-Ala-Papa-NH2
final HPLC purity [1]: 100%
isolated mass [2]: 45 mg
